Consider 63 compounds from PubChem BioAssay AID493014 (National Center for Advancing Translational Sciences (NCATS), 2011).

This is one part of the list. Further columns of the screen follow, without active or inactive calls. Compounds called inactive in the main read-out are mostly missing here. Words in brackets tell the shape of the fitted curve; partial curves, single points and poor fits give uncertain potencies.

This assay in a line: qHTS Assay to Find Inhibitors of Chronic Active B-Cell Receptor Signaling. Particulars: ABC-DLBCL IkBa-CBG/CBR reporter, luminescence ratio (green luciferase fused to IkBa over red control in TMD8 lymphoma cells), 4 h. A digest of the protocol: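 TMD8 ABC-DLBCL cells carrying doxycycline-inducible green luciferase fused to IkappaBalpha plus unfused red luciferase were exposed to compounds (up to 46 uM) for 4 hrs at 37C. Activity came from the overlap-corrected green/red luminescence ratio.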
In general terms: In qHTS, concentration-response curves come from the screen itself.

[1] abbreviates: measured here: CBR red luminescence, cell number.
The mark [2] stands for this setting: measured here: IkBa-CBG green luminescence.

For orientation: AC50 means the concentration giving half of the maximal activity seen. As for `O=C(CN1CCC(NC(=O)Nc2ccccc2)CC1)Nc1cccc([N+](=O)[O-])c1`, the AC50 under setting [1] is 14.1 µM [falling, partial curve, poor fit]. Still for that read-out and setting: the result for `Cc1cc(=O)oc2cc(OCCSCCN3CCOCC3)ccc12` reads 7.08 µM [rising, partial curve, poor fit]; that for `O=C(CCCN1C(=O)/C(=C\c2ccccc2)SC1=S)Nc1ccc(O)cc1`, 2.51 µM [falling, full curve]. Same read-out and setting: next, `CCn1c(=O)n(CC(=O)N(C)Cc2ccccc2)c(=O)c2ccccc21`: 0.00461 µM [falling, full curve, poor fit]; `COc1cccc(C(=O)N/N=C(\CC(C)C)c2ccccc2)c1`: 8.2 µM [falling, partial curve]. On to `CCc1cn(S(=O)(=O)c2ccccc2OC)nc1N`, for which the AC50 under setting [1] is 1.3 µM [falling, full curve, poor fit]. Still for that read-out and setting: next, `CCc1nn2c(=O)cc(COc3cccc(NC(=O)c4ccco4)c3)nc2s1`: 2.24 µM [falling, full curve]; `O=c1c(Cl)c(N2CCN(c3ccc(F)cc3)CC2)cnn1-c1nc2ccccc2s1`: 3.26 µM [rising, partial curve, poor fit]. Turning to `Cc1ccc(-n2c(C)c(C)c3c(NCCCO)ncnc32)cc1`, the AC50 under setting [1] was 14.1 µM [falling, single point].

As to `COc1cccc(/C=C2\SC(=S)N(CCCC(=O)NC3=NCCS3)C2=O)c1`, the AC50 under setting [1] is 1.41 µM [falling, full curve]. Same read-out and setting: the result for `CCOc1ccc(C(=O)CC(C(=O)O)N2CCCCC2)cc1` (stereo not drawn) reads 29.1 µM [falling, single point]; that for `COc1ccc2c(c1OC)C(=O)N1c3ccccc3C(=O)N(c3ccccc3)C21` (stereo not drawn), 29.1 µM [falling, single point]. Consider `CCCn1nc([N+](=O)[O-])c(C(C#N)c2nc3ccccc3s2)c(Cl)c1=O` (stereo not drawn), for which the half-maximal activity concentration (AC50) runs as follows: under setting [1], 3.66 µM [falling, partial curve]; under setting [2], 20.6 µM [rising, partial curve, poor fit]. For `COc1cc(NCc2ccccc2)c2ncn(C(C)C)c2c1`, the half-maximal activity concentration (AC50) under setting [1] is 7.31 µM [rising, partial curve, poor fit]. On the same count and under the same terms, next, `CCN1C(=O)CC(C(=O)Nc2ccc(F)cc2)SC1=Nc1cccc(OC)c1` (stereo not drawn): 35.5 µM [falling, single point]; `COCCCNC(=S)N1CCCC(c2nc3cc(C)c(C)cc3[nH]2)C1` (stereo not drawn): 35.5 µM [falling, single point]; `O=C(CSc1nnnn1-c1ccc(O)cc1)NC1CCCCC1`: 12.6 µM [falling, partial curve, poor fit].

On to `CCCCCn1nc(C(=O)OCC(=O)c2c(N)n(C)c(=O)n(C)c2=O)c2ccccc2c1=O`, for which the AC50 under setting [1] is 14.1 µM [falling, single point] and the AC50 under setting [2] is 15.8 µM [rising, partial curve, poor fit].

As for `Cc1ccc(NC(=O)NCCSc2ccc(C)cc2)cc1`, the concentration at half-maximal activity (AC50) under setting [1] is 35.5 µM [rising, single point].

As to `O=C1/C(=C/c2ccc([N+](=O)[O-])cc2)Oc2cc(O)ccc21`, the AC50 under setting [1] was 1.41 µM [rising, partial curve]. On the same count and under the same terms, the result for `O=C(COC(=O)c1cc(Br)ccc1O)c1ccc(F)cc1` reads 8.2 µM [rising, partial curve, poor fit]. Take `COc1cc2c(C#N)c(N3CCOCC3)nc(N)c2c(N)n1`: the AC50 is 4.61 µM [falling, single point] under setting [1] and 1.84 µM [rising, partial curve, poor fit] under setting [2]. For the compound `O=C(Nc1ccc(Cl)c(S(=O)(=O)N2CCOCC2)c1)c1ccc(Cl)nc1`, the AC50 under setting [1] is 9.2 µM [falling, partial curve]. For the compound `Cc1c(NS(=O)(=O)c2ccc(Cl)c(C(=O)OC(C)C(=O)N3CCOCC3)c2)c(=O)n(-c2ccccc2)n1C` (stereo not drawn), under setting [1], the half-maximal activity concentration (AC50) was 17.8 µM [rising, partial curve, poor fit].

Turning to `Nn1c(SCC(=O)Nc2ccc3c(c2)OCO3)nnc1C1CC1`, the AC50 under setting [1] was 3.66 µM [falling, partial curve, poor fit]. Same read-out and setting: the result for `Cc1cccc(N=C2NC(=O)/C(=C/C=C/c3ccco3)S2)c1C` reads 7.31 µM [rising, partial curve, poor fit]; that for `O=c1oc2ccccc2c(NC(c2ccccc2)c2ccccc2)c1[N+](=O)[O-]`, 32.6 µM [falling, partial curve, poor fit]. On the same count and under the same terms, the result for `Cc1ccc(C(=O)CCC(=O)Nc2ccccc2F)cc1` reads 17.8 µM [falling, partial curve, poor fit].

On to `COc1cc(/C=N/NC(=S)NCCc2ccccc2)cc(OC)c1OC`, for which the half-maximal activity concentration (AC50) under setting [1] was 2.82 µM [falling, partial curve, poor fit]. The same measure, in the same setting: the result for `Cc1cc(C)nc(SCC(=O)Nc2ccnc3ccccc23)n1` reads 15.8 µM [falling, single point]; that for `Cc1cc(C)c(-c2cc(C(=O)Nc3cc(C)ccc3C)[nH]n2)c(O)c1`, 25.1 µM [falling, single point]. As to `CCOC(=O)N1CCN(c2c(NCc3ccc(F)cc3)c(=O)c2=O)CC1`, the AC50 is 12.6 µM [rising, partial curve] under setting [1] and 14.1 µM [falling, single point] under setting [2]. With `O=C(CSc1nc2c([nH]c3ccccc32)c(=O)n1-c1ccccc1)N1CCOCC1`, the AC50 under setting [1] is 0.0058 µM [rising, full curve, poor fit]. Take `COCCNC(=S)N1CCCC(CO)C1` (stereo not drawn): the AC50 under setting [1] is 0.1 µM [falling, full curve, poor fit]. With `Cn1c(N)c(C(=O)COC(=O)Cc2cccc(C(F)(F)F)c2)c(=O)n(C)c1=O`, the AC50 reads like this: under setting [1], 2.06 µM [falling, partial curve, poor fit]; under setting [2], 16.4 µM [rising, partial curve, poor fit]. For `CS(=O)(=O)Nc1cccc(C2=NN(C(=O)c3cccc([N+](=O)[O-])c3)C(c3cccs3)C2)c1` (stereo not drawn), under setting [1], the AC50 was 35.5 µM [falling, single point]. With `Cc1cc2nc(SCCOC(=O)Nc3ccccc3)nc(C)c2cc1C`, the AC50 under setting [1] is 2.91 µM [rising, full curve]. Regarding `CC1CCN(c2ccc(C(=O)NCc3cccs3)cn2)CC1`, under setting [1], the AC50 is 7.94 µM [falling, partial curve, poor fit]. On to `CC1=NN(C(=O)COc2ccc(C)c(C)c2)C(O)(c2ccc(Cl)cc2)C1` (stereo not drawn), for which the AC50 under setting [1] is 18.4 µM [falling, single point]. On the same count and under the same terms, the result for `CC(C)CC(OC(=O)c1ccco1)C(=O)NCC1CCCO1` (stereo not drawn) reads 5.62 µM [rising, full curve, poor fit]; that for `O=C(c1ccc(OC2CCN(CCc3ccccc3)CC2)cc1)N1CCCC1`, 14.1 µM [rising, single point]. On the same count and under the same terms, the result for `Nc1cc(=O)[nH]c(SCC(=O)Nc2cc(Cl)ccc2Cl)n1` reads 6.31 µM [falling, single point]. The same measure, in the same setting: the result for `COc1ccc(OC)c(-n2c(=O)c3ccccc3c3ccccc3c2=O)c1` reads 16.4 µM [falling, single point]; that for `Cc1cc(C)nc(SCCCn2c(=O)[nH]c3ccccc32)n1`, 7.94 µM [falling, partial curve]; that for `Cc1ccc(NC(=O)NCc2cccnc2)cc1Cl`, 22.4 µM [falling, single point]. Regarding `CNC(=O)c1[nH]cnc1C(=O)Nc1ccc(F)cc1`, under setting [1], the concentration at half-maximal activity (AC50) is 6.31 µM [falling, full curve]. For `Cc1cccc(NS(=O)(=O)c2cc(C(=O)OCC(=O)Nc3cc(C)on3)ccc2C)c1`, under setting [1], the AC50 is 20.6 µM [falling, partial curve]. The same measure, in the same setting: next, `CCOC(=O)c1c(NC(=O)CSc2nc3ccccc3s2)sc(C(C)=O)c1C`: 0.447 µM [falling, full curve, poor fit]; `CC1CCC(NC(=O)c2ccc(/C=C3\Oc4ccccc4N(C)C3=O)cc2)CC1` (stereo not drawn): 16.4 µM [falling, partial curve]. Same read-out and setting: the result for `CCCC(C)C(=O)Nc1ccccc1C(=O)OCC` (stereo not drawn) reads 0.517 µM [rising, full curve, poor fit]; that for `CCCc1nc(N)nc2c1C(=O)CC(C)(C)C2`, 6.31 µM [falling, single point]. For the compound `CCCCCCCn1ccc(O)c(CC(=O)OC)c1=O`, under setting [1], the AC50 is 35.5 µM [falling, single point].

Regarding `CC(C)C(=O)Nc1ccc(O)c(-c2csc(N)n2)c1`, the half-maximal activity concentration (AC50) under setting [1] is 3.98 µM [falling, full curve]. Still for that read-out and setting: next, `COc1ccccc1CCNC(=O)C(=O)c1cn(CC(=O)N2CCCC2)c2ccccc12`: 7.94 µM [falling, partial curve, poor fit]. For `O=C1NC(=O)C2(COC3(CCCC3)OC2)S1`, the AC50 under setting [2] was 4.61 µM [rising, partial curve, poor fit]. For `Cc1ccc2nc(-c3ccccn3)[nH]c2c1`, under setting [1], the AC50 was 35.5 µM [falling, single point]. Still for that read-out and setting: next, `COc1ccc(C(CC(=O)Nc2cc(C)ccn2)N2Cc3ccccc3C2=O)cc1` (stereo not drawn): 15.8 µM [falling, single point]; `COc1cc(/C=N/NC(=O)c2cc3ccccc3cc2O)ccc1OCCN1CCCCC1`: 13 µM [falling, partial curve, poor fit]; `Cc1c(O)ccc2c(-c3ccccc3)cc(=O)oc12`: 15.8 µM [falling, single point].

Regarding `CCOc1ccccc1NC(=O)C(=O)NCCc1sc2nc(-c3ccc(OC)cc3)nn2c1C`, the AC50 under setting [1] is 15.8 µM [falling, partial curve, poor fit]. Still for that read-out and setting: the result for `Cc1nn2c(N3CCCC3)cc(C(C)C)nc2c1-c1ccccc1` reads 1.78 µM [rising, partial curve, poor fit]; that for `Clc1ccc(Nc2nc3cccnc3s2)cc1`, 0.562 µM [rising, full curve]. On the same count and under the same terms, next, `O=C(COc1ccccc1)NCc1ccccc1`: 32.6 µM [rising, single point].
